Inconclusive results, whose numbers are uncertain, are shown with a selection of clear calls. Where the call is inconclusive, the potency comes from a doubtful curve fit. Calls of active or inactive are those of the source. Unless noted, calls follow the shape of the full dose curve.
Columns and labels:
[1] = target: Beta-2 adrenergic receptor (Homo sapiens) (UniProt P07550); experiment: Adrenergic beta2 receptor (ADRB2) small molecule agonists, cell-based qHTS assay (AID 1963593); details: CHO-ADRB2 cells, cAMP HTRF, 30 min; activation: at 92.4 µM (top of the series) unless noted;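 as to activation: CHO cells stably overexpressing human ADRB2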
Method in brief: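 CHO cells stably over-expressing ADRB2 were plated overnight at 37C, then dosed with compounds plus a stimulation mix containing 100uM IBMX and 25uM Ro-20-1724 for 0.5hr at room temperature. cAMP was measured by HTRF competition, 1hr.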

Chains of the proteins cited; added tags and fusions are not shown.
UniProt P14416, whole entry, looked up: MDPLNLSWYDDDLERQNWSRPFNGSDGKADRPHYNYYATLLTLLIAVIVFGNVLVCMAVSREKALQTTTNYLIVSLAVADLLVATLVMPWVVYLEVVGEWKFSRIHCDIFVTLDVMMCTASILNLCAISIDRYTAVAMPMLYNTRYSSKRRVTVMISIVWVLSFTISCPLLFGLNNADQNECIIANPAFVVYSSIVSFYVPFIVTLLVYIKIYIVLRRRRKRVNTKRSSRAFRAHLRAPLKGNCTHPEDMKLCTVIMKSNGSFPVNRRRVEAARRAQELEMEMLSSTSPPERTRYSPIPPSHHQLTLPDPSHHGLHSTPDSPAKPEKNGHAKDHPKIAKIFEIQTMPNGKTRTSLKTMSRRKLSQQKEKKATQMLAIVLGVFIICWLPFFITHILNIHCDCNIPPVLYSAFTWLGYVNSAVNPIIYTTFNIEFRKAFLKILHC

[2] = target: D(2) dopamine receptor (Homo sapiens) (UniProt P14416); experiment: Dopamine D2 receptor (DRD2) small molecule antagonists, cell-based qHTS assay (AID 1963595; active = well fitted inhibition curve with a large enough effect in the signal ratio in the repeat runs, with a control signal flat; inconclusive = weak or mixed curves, or effect the other way; the % refers to the signal ratio); details: HEK293-DRD2 cAMP HTRF antagonist mode; activity change, negative = inhibition: at 92.4 µM (top of the series) unless noted
Method in brief: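 HEK293 cells stably expressing DRD2 were preincubated with 0.1 mM Ro20-1724, then with compound for 10 min at room temperature. Cells were stimulated with 200 nM NKH477 plus 12 nM quinpirole for 30 min, and cAMP was read by HTRF.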
% is scaled to controls: 0 for no effect and ±100 for the full control effect; potency is read from the fitted curve at half-maximal effect.

| SMILES | Potency [1] | Potency [2] | activation [1] | activity change, negative = inhibition [2] |
| --- | --- | --- | --- | --- |
| COC(=O)c1sccc1S(N)(=O)=O | inconclusive: 6.86 µM [inhibitor, single point] | inactive |  |  |
| CCCC=O | inconclusive: 0.0598 µM [inhibitor, partial curve, poor fit] | inconclusive: 67.1 µM [activator] |  |  |
| O=C1OC(=O)c2ccccc21 | inactive | inactive |  |  |
| O=C1NC2NC(=O)NC2N1 (stereo not drawn) |  |  | inconclusive: 14.4% | inconclusive: -17.3% |
| CSc1nnc(C(C)(C)C)c(=O)[nH]1 |  | inactive | inconclusive: -90.4% |  |
| C=C(C)C(=O)OCC | inconclusive: 16.1 µM [inhibitor, partial curve, poor fit] | inactive |  |  |
| CO[C@@]1(NC(=O)CSCC#N)C(=O)N2C(C(=O)O)=C(CSc3nnnn3C)CS[C@@H]21 |  | inconclusive: 0.211 µM [cytotoxic, full curve, poor fit] | inconclusive: -21.7% [at 42.5 µM] |  |
| COc1cc(N)c(Cl)cc1C(=O)NC1CCN(Cc2ccccc2)CC1 |  | active: 0.0298 µM | inconclusive: -1.42% [at 42.5 µM] |  |
| FB(F)F | inactive | inactive |  |  |
| CN1C(C)(C)CC(O)CC1(C)C |  | inactive | inconclusive: 33.4% |  |
| CN(C(=O)C(Cl)Cl)c1ccc(OC(=O)c2ccco2)cc1 |  | inactive | inconclusive: 11.3% [at 42.5 µM] |  |
| CC/C=C\CCO | inactive |  |  | inconclusive: -8.58% |
| CCNc1cc(O)ccc1C | inactive |  |  | inconclusive: -2.09% |
| CN(C)CCCN(C)CCCN(C)C |  |  | inconclusive: 7.54% | inconclusive: 6.53% |

3 entries out of the list, arranged by length of the SMILES, rising:

| SMILES | Potency [1] | Potency [2] | activation [1] | activity change, negative = inhibition [2] |
| --- | --- | --- | --- | --- |
| O=C1OC(=O)c2ccccc21 | inactive | inactive |  |  |
| CN1C(C)(C)CC(O)CC1(C)C |  | inactive | inconclusive: 33.4% |  |
| COc1cc(N)c(Cl)cc1C(=O)NC1CCN(Cc2ccccc2)CC1 |  | active: 0.0298 µM | inconclusive: -1.42% [at 42.5 µM] |  |

Source: PubChem BioAssay (Tox21)
